Results on eight compounds are retold here after PubChem BioAssay AID248 (DTP/NCI, 2004).

The assay deals with L1210 leukemia ip in BDF1 mice, survival T/C. Kind of assay: NCI In Vivo Anticancer Drug Screen. Data for tumor model L1210 Leukemia (intraperitoneal) in B6D2F1 (BDF1) mice. To be noted: T/C endpoint: mean survival time, higher T/C = longer survival.
[1] abbreviates: dose: 400.0 mg/kg/injection, schedule: Q04DX003 (ip), vehicle: saline with Tween-80.

The list shows only some results of the screen, not a fair sample: it gathers tests that were run many times, whatever their T/C, doses with no T/C, and many T/C values between a quarter and a half above the control. Other doses and runs of a compound stand elsewhere. T/C: endpoint of the treated group in % of that of the vehicle group. Some entries give survivors of the animals treated and no T/C: the source holds a T/C of zero for them, seemingly a mark for toxic or unscored doses. Some survivor counts are full or nearly so, which does not show that the dose was tolerated: the source hardly ever lists a survival T/C far under the control, and the zero likely stands for such cases as well. Counts of survivors are from the toxicity check (mostly the fifth day) where no day follows; animals may have died later. Schedules are NCI's codes, taken here to give the interval after Q, in days (D) or hours (H), and the number of doses after X. Some entries were tested several times; the results are listed from low to high. Where survival is the endpoint, this PubChem deposit counts one and a half times the control or more as active, and values a quarter to a half above the control carry no call in these data; other NCI protocols may use other cut-offs. Some schedules carry Z or #; the key to these is not given.

In the case of `O=C(Nc1ccc(C2=NCCN2)cc1)c1ccc(C(=O)Nc2ccc(C3=NCCN3)cc2)o1`, the T/C (dose: 60.0 mg/kg/injection, schedule: Q01DX Z (ip), vehicle: carboxymethylcellulose (CMC)) was 148 % of control.

Take `Nc1nc(N)c2nc(CNc3ccc(CC(=O)NC(CC(=O)O)C(=O)O)cc3)cnc2n1` (configuration not stated): the T/C (dose: 200.0 mg/kg/injection, schedule: Q01DX009 (ip), vehicle: sodium bicarbonate) is 129 % of control.

On to `CCCCCCSC(=N)N`, for which the survivor count is, setting by setting: (dose: 100.0 mg/kg/injection, schedule: Q04DX002 (ip), vehicle: saline) 0 of 3 and 1 of 6; (dose: 200.0 mg/kg/injection, schedule: Q04DX002 (ip), vehicle: saline) 0 of 3 and 1 of 6; (dose: 400.0 mg/kg/injection, schedule: Q04DX002 (ip), vehicle: saline) 0 of 3 and 0 of 6.

Turning to `CC(C)(C)CC(C)(C)NS(=O)(=O)CCCBr`, the survivor count is, setting by setting: (dose: 100.0 mg/kg/injection, schedule: Q04DX003 (ip), vehicle: saline with Tween-80) 2 of 6 and 6 of 6; (dose: 200.0 mg/kg/injection, schedule: Q04DX003 (ip), vehicle: saline with Tween-80) 0 of 6; under setting [1], 0 of 6.

Regarding `COc1ccc(C(CC(=O)c2ccccc2)SCCN2CCOCC2)cc1` (configuration not stated), the survivor count under setting [1] is listed as 4 of 6.

As to `CN(C)CCCN(CCCN(C)C)Cc1ccccc1`, the survivor count (dose: 300.0 mg/kg/injection, schedule: Q01DX001 (ip), vehicle: saline) is recorded as 0 of 6.

As for `NC(=O)c1[nH]c(CCCc2ccccc2)nc1N`, the survivor count (dose: 400.0 mg/kg/injection, schedule: Q01DX001 (ip), vehicle: saline with Tween-80) is recorded as 0 of 6.

For `CCCCCCCCC(=O)NCc1ccc(O)c(OC)c1`, the survivor count is on record as 3 of 6 (dose: 12.5 mg/kg/injection, schedule: Q01DX009 (ip), vehicle: saline with Tween-80); 0 of 6 (dose: 25.0 mg/kg/injection, schedule: Q01DX009 (ip), vehicle: saline with Tween-80); 0 of 6 (dose: 50.0 mg/kg/injection, schedule: Q01DX009 (ip), vehicle: saline with Tween-80); 0 of 6 (dose: 100.0 mg/kg/injection, schedule: Q01DX009 (ip), vehicle: saline with Tween-80); 0 of 6 (dose: 200.0 mg/kg/injection, schedule: Q01DX009 (ip), vehicle: saline with Tween-80); 0 of 6 (dose: 400.0 mg/kg/injection, schedule: Q01DX009 (ip), vehicle: saline with Tween-80).
